This note sets out measurements from article PMC8208478.

The exact form of at least one protein or probe is not confirmed. Tags and fusion partners may be left off the protein sequences shown.

The target of this data set is T1, Gp44(1-55) C-terminal His (Gp44NT-His) (Bacillus phage SPO1) (UniProt Q08402).
T1 sequence (looked up): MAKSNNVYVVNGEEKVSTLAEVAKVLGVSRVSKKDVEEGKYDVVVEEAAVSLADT
In words: NMR titration (1H-15N HSQC). The conditions noted are these: pH 6.5, 298 K, no preference between the two probes; NMR titration at pH 6.5, 298 K; up to 5-fold dsDNA added to 15N Gp44; protein storage buffer 50 mM NaH2PO4 pH 6.8, 250 mM NaCl, 1 mM DTT; recombinant protein; residues 1-55; protein details: C-terminal His-tag.

Turning to “AATTGCAGTAGGCATGACAAAATGGACTCA (double strand) [Pstrong (BBa_K780003)]”, the binding result is recorded as “binds”. As for “AGGGAATACAAGCTACTTGTTCTTTTTGCA (double strand) [T7A1 (BBa_I712074)]”, the binding result is recorded as “binds”.
